# Screening data, single-dose tests

From ChEMBL document CHEMBL3988442, “University of Dundee, Small-Polar-MMV Screening Library” (2021).

Results are given as percent effect. The controls that fix the scale are not given in the record; negative values are as filed. The compounds are a random part of those screened.

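Assay of Toxoplasma gondii numbers, read through their beta-galactosidase reporter with a colour substrate. Tested at 50 µM. Higher reads as fewer parasites (inferred from which compounds were picked for retests). Size under these conditions: about 18,000 compounds, about 170 of them at 50% or above in at least one test.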

| # | compound | effect |
|---|---|---|
| 1 | `CN(C(=O)NC1CCCCC1)C1CC[S+]([O-])CC1` (centres unmarked) | -7.028% |
| 2 | `COCCNCCNC(=O)c1ccc(C#N)cc1` | -9.823% |
| 3 | `COc1cccc(C2=NN=C(NC3CC3)SC2)c1` | -3.49% |
| 4 | `COc1ccccc1OCC(=O)N[C@@H]1CCOC[C@H]1O` | -14.64% |
| 5 | `NC(=O)C[C@@H](N)c1ccc(Cl)cc1` | 0.4297% |
| 6 | `NCC1(OCCO)CCOCC1` | -4.281% |
| 7 | `CN(Cc1ccco1)C(=O)CCNC(=O)c1cccs1` | -10.18% |
| 8 | `CSCC(C)C(=O)Nc1cc(C)n[nH]1` (centres unmarked) | 25.07% |
| 9 | `CN(C1CCCCC1)S(=O)(=O)NC1CCCCNC1=O` (centres unmarked) | -10.23% |
| 10 | `NCCc1nccc(-c2ccccc2)n1` | 0.3888% |
| 11 | `Cc1cccc(C)c1OC1CN(C(=O)CC(O)CN)C1` (centres unmarked) | -10.33% |
| 12 | `c1snnc1CN1CCC[C@H]2OCC[C@H]21` | -4.895% |
| 13 | `N#Cc1ccc(CN)c(F)c1` | 29.17% |
| 14 | `O=C(NC1CCN(C(=O)C2CC2)CC1)c1cccs1` | -0.3926% |
| 15 | `NCC(CO)c1ccccc1Cl` (centres unmarked) | 2.314% |
| 16 | `O=C(c1ccc(CN2CCSCC2)cc1)N1CCCC1` | -1.299% |
| 17 | `COCCN(C)CCNC(=O)c1ccc(F)c(F)c1` | 11.63% |
| 18 | `CCC(C)(C#N)NC(=O)Cc1cccs1` (centres unmarked) | -8.512% |
| 19 | `CCOC(=O)CN(C)S(=O)(=O)NCc1cnn(C)c1` | -5.774% |
| 20 | `COc1ccc(NC(=O)CC2COCCN2)c(C)c1` (centres unmarked) | 2.42% |
| 21 | `CS(=O)(=O)N1CCCN(Cc2nnc(C3CC3)o2)CC1` | -10.03% |
| 22 | `CC(CO)N(CC1CCC1)c1ccc2nnnn2n1` (centres unmarked) | 1.261% |
| 23 | `O=C(NCC1CCN(C2CC2)C1)c1ccccc1F` (centres unmarked) | 13.84% |
| 24 | `O=C(CNc1ccccc1F)N1CCCCC1` | -9.803% |
| 25 | `CCNc1nc(N2CCCC2)nc2c1cnn2C` | 12.74% |
| 26 | `C[C@H](N)c1ccc(-n2cccn2)c(F)c1` | 2.419% |
| 27 | `COc1c(CNCCCNS(C)(=O)=O)c(C)nn1C` | -17.44% |
| 28 | `Cc1cccc(Cn2c(CCN)n[nH]c2=O)c1` | 22.83% |
| 29 | `O=C(NCCn1cccn1)c1cc2sccc2[nH]1` | -2.93% |
| 30 | `Cc1nnc(N2CCN(CC(C)C)C(=O)C2)o1` | -6.075% |
| 31 | `CSCc1noc(CN2CC(C)(C)[C@@](C)(O)C2)n1` | 7.787% |
| 32 | `COC(=O)c1cc(F)c[nH]1` | -12.61% |
| 33 | `CC(=O)c1cc(CN2CCN(C(=O)N(C)C)CC2)cs1` | 11.29% |
| 34 | `CNc1ncc(C(=O)N[C@@H]2CCOC[C@H]2O)cn1` | -8.445% |
| 35 | `CC(OC(=O)c1cncc(Br)c1)C(=O)NC1CC1` (centres unmarked) | -15.86% |
| 36 | `CN(CCNC(=O)NC1CCOCC1)C1CCCC1` | 24.81% |
| 37 | `NC(CO)c1c(F)cccc1F` (centres unmarked) | -11.84% |
| 38 | `CCNC(=O)NC(=O)CSc1nnc(C(C)C)n1C` | 17.03% |
| 39 | `CC(N)c1cc[nH]c(=O)c1` (centres unmarked) | 3.694% |
| 40 | `Cc1cc(NC(=O)CN2CCN(C)CC2)n(C)n1` | -7.525% |
| 41 | `CCOc1cncc(C(=O)NC)c1` | -11.08% |
| 42 | `Cn1nccc1C(=O)N1CCN(Cc2cscn2)CC1` | -7.047% |
| 43 | `CS(=O)(=O)c1cccc(Cl)c1C#N` | -1.587% |
| 44 | `Cc1ccc(C(=O)Nc2ccon2)o1` | 10.75% |
| 45 | `CCC(=O)OC(C)C(=O)Nc1ccc2c(c1)OCCO2` (centres unmarked) | 1.672% |
| 46 | `Cc1ccccc1C(CC(=O)NC1CC1)NC(N)=O` (centres unmarked) | -0.3067% |
| 47 | `O=C(CCCc1cn[nH]c1)N[C@@H]1C[C@@H]2OCC[C@@H]21` | 2.115% |
| 48 | `CCS(=O)(=O)NCCN(C(C)C)C1CCOCC1` | -8.304% |
| 49 | `CCCn1nnnc1COc1nc(C)no1` | -11.24% |
| 50 | `Cc1ccc(C(=O)Nc2nc(C)cs2)cn1` | 18.96% |
| 51 | `NCc1cc(OC2CCC2)ccn1` | 18.58% |
| 52 | `Cc1cccc(=O)n1CCCNC(=O)c1cnco1` | -9.252% |
| 53 | `COCC(=O)Nc1cccc(CN2CCCC2)c1` | 0.8603% |
| 54 | `CC(C(=O)N1CCCC1)N1CCN(c2nc[nH]n2)CC1` (centres unmarked) | 16.6% |
| 55 | `CCCc1cc(=O)[nH]c(C(C)(N)CC)n1` (centres unmarked) | 0.6774% |
| 56 | `COc1ccc(CN(C)[C@@H]2CCCC[C@@H]2O)cn1` | 6.617% |
| 57 | `CN(CCc1cnn(C)c1)C(=O)c1c[nH]c(=O)[nH]1` | 3.753% |
| 58 | `CC(CCNC(=O)CCc1cccnc1)n1ccnc1` (centres unmarked) | -1.131% |
| 59 | `COc1ccc2[nH]c(N3CCOCC3)nc2c1` | 4.618% |
| 60 | `CCc1nnc2ccc(NC3CC3)nn12` | -48.28% |
| 61 | `COCCn1cc(Br)cn1` | 4.664% |
| 62 | `COCCn1cc(C(F)(F)F)ccc1=O` | 26.41% |
| 63 | `NCCOc1ncc(C(F)(F)F)cc1Cl` | -1.575% |
| 64 | `CCn1nnnc1SC(C)C(=O)Nc1ccc(F)cc1` (centres unmarked) | -10.94% |
| 65 | `CSc1nc(C)cc(=O)[nH]1` | -6.29% |
| 66 | `CC(C)OCCCNC(=O)C1CCNCC1` | 13.78% |
| 67 | `CC(=O)N1CCN(C(=O)c2nccnc2N)CC1` | -26.57% |
| 68 | `COC[C@@H]1CNC[C@H]1C(=O)NC1CC1` | 4.387% |
| 69 | `CC(=O)Nc1ccc(C(=O)N(C)c2ccccc2)s1` | 10.16% |
| 70 | `COc1ncccc1CNC(=O)N1CCCN(C)CC1` | 4.725% |
| 71 | `Cc1nc(C(=O)NCCN2CCCCC2CO)cs1` (centres unmarked) | 7.467% |
| 72 | `Cn1ccnc1CNC1CC1` | -4.613% |
| 73 | `CN(CC(N)=O)C(CCO)c1ccccc1` (centres unmarked) | -1.245% |
| 74 | `CCN(CCCS(=O)(=O)NC)c1cccc(CO)c1` | 10.99% |
| 75 | `CC(O)CCN(C)CC(=O)N(C)C1CC1` (centres unmarked) | -13.49% |
| 76 | `CN1Cc2cccn2CC1CNC(=O)c1cccn1C` (centres unmarked) | -1.379% |
| 77 | `Cc1cc(C)n2nc(C(=O)N3CCSCC3)nc2n1` | 6.701% |
| 78 | `Cc1ccc(CN2CC(O)(CC#N)C2)s1` | 2.216% |

Some entries from above, unchanged:

compound	effect
Cc1ccc(C(=O)Nc2nc(C)cs2)cn1	18.96%
NCCc1nccc(-c2ccccc2)n1	0.3888%
O=C(c1ccc(CN2CCSCC2)cc1)N1CCCC1	-1.299%
CCc1nnc2ccc(NC3CC3)nn12	-48.28%
CC(=O)c1cc(CN2CCN(C(=O)N(C)C)CC2)cs1	11.29%
COC(=O)c1cc(F)c[nH]1	-12.61%
O=C(CNc1ccccc1F)N1CCCCC1	-9.803%
CCOc1cncc(C(=O)NC)c1	-11.08%